PMC10119315
Results are given in words; binding and its absence hold for the method and conditions named. Binding seen in cells or lysates may run through a third protein. Some results given as binding are weak or reduced against the parent protein; the word gives no strength. Where a sequence is shown, tags or fusion partners need not be part of it.

Sequences of proteins named here, by UniProt entry; tags and fusion partners are left off. Residues count along the entry.
UniProt P01137, residues 30-390: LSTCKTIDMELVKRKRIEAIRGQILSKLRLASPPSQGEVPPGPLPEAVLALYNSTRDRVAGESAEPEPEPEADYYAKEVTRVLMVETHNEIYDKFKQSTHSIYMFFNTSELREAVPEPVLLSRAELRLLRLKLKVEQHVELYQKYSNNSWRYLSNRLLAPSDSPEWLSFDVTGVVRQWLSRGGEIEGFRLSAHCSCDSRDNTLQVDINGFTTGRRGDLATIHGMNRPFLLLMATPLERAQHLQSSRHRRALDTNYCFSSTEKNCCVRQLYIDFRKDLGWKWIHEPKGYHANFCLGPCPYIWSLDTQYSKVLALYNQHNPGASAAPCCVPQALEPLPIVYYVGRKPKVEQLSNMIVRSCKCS

Target: LAP-TGF-β1-GFP (human) (UniProt P01137)
Experiment: co-IP; HEK293T cells co-transfected, lysed 48 h later in Tris-HCl pH 8.0, 150 mM NaCl, 1% Triton X-100 buffer; antibody against FLAG or GFP or control IgG overnight at 4 °C, Protein A/G agarose; Western blot; also with co-expressed AGGF1-GFP or AGGF1-RDD^del-GFP, or purified AGGF1 or AGGF1-RDD^del for 24 h (wild-type AGGF1 enhanced the co-precipitation, the mutant did not)

- binding: binds
B1: Integrin α7-FLAG (receptor, UniProt Q13683-7 34-1137)
chain: FNLDVMGALRKEGEPGSLFGFSVALHRQLQPRPQSWLLVGAPQALALPGQQANRTGGLFACPLSLEETDCYRVDIDQGADMQKESKENQWLGVSVRSQGPGGKIVTCAHRYEARQRVDQILETRDMIGRCFVLSQDLAIRDELDGGEWKFCEGRPQGHEQFGFCQQGTAAAFSPDSHYLLFGAPGTYNWKGLLFVTNIDSSDPDQLVYKTLDPADRLPGPAGDLALNSYLGFSIDSGKGLVRAEELSFVAGAPRANHKGAVVILRKDSASRLVPEVMLSGERLTSGFGYSLAVADLNSDGWPDLIVGAPYFFERQEELGGAVYVYLNQGGHWAGISPLRLCGSPDSMFGISLAVLGDLNQDGFPDIAVGAPFDGDGKVFIYHGSSLGVVAKPSQVLEGEAVGIKSFGYSLSGSLDMDGNQYPDLLVGSLADTAVLFRARPILHVSHEVSIAPRSIDLEQPNCAGGHSVCVDLRVCFSYIAVPSSYSPTVALDYVLDADTDRRLRGQVPRVTFLSRNLEEPKHQASGTVWLKHQHDRVCGDAMFQLQENVKDKLRAIVVTLSYSLQTPRLRRQAPGQGLPPVAPILNAHQPSTQRAEIHFLKQGCGEDKICQSNLQLVRARFCTRVSDTEFQPLPMDVDGTTALFALSGQPVIGLELMVTNLPSDPAQPQADGDDAHEAQLLVMLPDSLHYSGVRALDPAEKPLCLSNENASHVECELGNPMKRGAQVTFYLILSTSGISIETTELEVELLLATISEQELHPVSARARVFIELPLSIAGMAIPQQLFFSGVVRGERAMQSERDVGSKVKYEVTVSNQGQSLRTLGSAFLNIMWPHEIANGKWLLYPMQVELEGGQGPGQKGLCSPRPNILHLDVDSRDRRRRELEPPEQQEPGERQEPSMSWWPVSSAEKKKNITLDCARGTANCVVFSCPLYSFDRAAVLHVWGRLWNSTFLEEYSAVKSLEVIVRANITVKSSIKNLMLRDASTVIPVMVYLDPMAVVAEGVPWWVILLAVLAGLLVLALLVLLLWKMGFFKRAKHPEATVPQYHAVKIPREDRQQFKEEKTGTILRNNWGSPRREGPDAHPILAADGHPELGPDGHPGPGTA
